Molecules are shown by their SMILES. The list shows a part of the results.

Sequences of proteins named here, by UniProt entry; tags and fusion partners are left off. A change or cut given only in a name is not applied to a line headed by its entry.
UniProt P00492: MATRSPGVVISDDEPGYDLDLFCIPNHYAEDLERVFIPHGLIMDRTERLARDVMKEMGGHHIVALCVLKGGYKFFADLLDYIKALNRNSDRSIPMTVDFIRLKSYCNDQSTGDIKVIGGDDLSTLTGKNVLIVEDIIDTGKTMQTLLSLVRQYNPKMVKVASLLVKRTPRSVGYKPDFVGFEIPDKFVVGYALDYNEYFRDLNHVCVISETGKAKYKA

The results in this text go back to the supplement of paper PMC12067093, “Discovery and optimisation of a covalent ligand for TRIM25 and its application to targeted protein ubiquitination” (Chemical Science, 2025).

The assay deals with HPRT1_P00492_66_EMGGHHIVALCVLK (UniProt P00492). Put plainly: probe-labelled cysteine peptide fold change vs DMSO (competition) (log2 fold change); higher = less target engagement (more negative = stronger competition). To be noted: THP-1, incubation time: 4 h.
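Note: competitive profiling in live THP-1 cells: cysteine peptides tagged with an iodoacetamide desthiobiotin (IA-DTB) probe, intensity after compound treatment relative to DMSO-treated cells.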

Turning to `Cc1cc(C(=O)N2CCCN(C(=O)CCl)CC2)ccc1-c1ccccc1` [compound 10], the “probe-labelled cysteine peptide fold change” value reads like this: (10 µM) -0.101; (50 µM) 0.19.
